{"source": "paper PMC5996148", "experiment_in_all_cases": "protein microarray (ProtoArray v5.0), streptavidin-Alexa Fluor 647", "settings_in_all_cases": "3'-biotin; 20 mM Tris (pH 7.5), 5 mM MgCl2, 100 mM KCl, 0.1% Tween-20, A/T-rich and random oligonucleotide blockers; temperature not stated; high values mean tight binding", "key": {"[1]": {"test_system": "LARP6 (human)"}, "[2]": {"test_system": "LAS1L (human)"}, "[3]": {"test_system": "LASS2 (human)"}, "[4]": {"test_system": "LAT2 (human)"}, "[5]": {"test_system": "LCN1 (human)"}, "[6]": {"test_system": "LCP1 (human)"}, "[7]": {"test_system": "LDHB (human)"}, "[8]": {"test_system": "LENG4 (human)"}, "[9]": {"test_system": "LEPREL1 (human)"}, "[10]": {"test_system": "LETM2 (human)"}}, "note": "The list shows a part of the results."}
{"sequence": "GGGAGGCTGAGGCAGG [G4-1 biotinylated (PQS2)]", "values": [{"measurement": "binding signal", "setting": "[1]", "result": -0.256, "unit": "z-score"}, {"measurement": "binding signal", "setting": "[2]", "result": -0.336, "unit": "z-score"}, {"measurement": "binding signal", "setting": "[3]", "result": -0.242, "unit": "z-score"}, {"measurement": "binding signal", "setting": "[4]", "result": -0.295, "unit": "z-score"}, {"measurement": "binding signal", "setting": "[5]", "result": -0.353, "unit": "z-score"}, {"measurement": "binding signal", "setting": "[6]", "result": -0.342, "unit": "z-score"}, {"measurement": "binding signal", "setting": "[7]", "result": -0.322, "unit": "z-score"}, {"measurement": "binding signal", "setting": "[8]", "result": -0.312, "unit": "z-score"}, {"measurement": "binding signal", "setting": "[9]", "result": -0.289, "unit": "z-score"}, {"measurement": "binding signal", "setting": "[10]", "result": -0.35, "unit": "z-score"}]}
